Experimental data published in article PMC10176748.
Results are given in words; binding and its absence hold for the method and conditions named. Binding seen in cells or lysates may run through a third protein. Binding calls can cover weak binding; strength is not graded here.

The chains behind the UniProt entries cited, without tags or fusion partners. Where a name states a change or a piece, a line headed by the entry shows the natural chain unless it says otherwise. Residues count along the entry.
UniProt P97857: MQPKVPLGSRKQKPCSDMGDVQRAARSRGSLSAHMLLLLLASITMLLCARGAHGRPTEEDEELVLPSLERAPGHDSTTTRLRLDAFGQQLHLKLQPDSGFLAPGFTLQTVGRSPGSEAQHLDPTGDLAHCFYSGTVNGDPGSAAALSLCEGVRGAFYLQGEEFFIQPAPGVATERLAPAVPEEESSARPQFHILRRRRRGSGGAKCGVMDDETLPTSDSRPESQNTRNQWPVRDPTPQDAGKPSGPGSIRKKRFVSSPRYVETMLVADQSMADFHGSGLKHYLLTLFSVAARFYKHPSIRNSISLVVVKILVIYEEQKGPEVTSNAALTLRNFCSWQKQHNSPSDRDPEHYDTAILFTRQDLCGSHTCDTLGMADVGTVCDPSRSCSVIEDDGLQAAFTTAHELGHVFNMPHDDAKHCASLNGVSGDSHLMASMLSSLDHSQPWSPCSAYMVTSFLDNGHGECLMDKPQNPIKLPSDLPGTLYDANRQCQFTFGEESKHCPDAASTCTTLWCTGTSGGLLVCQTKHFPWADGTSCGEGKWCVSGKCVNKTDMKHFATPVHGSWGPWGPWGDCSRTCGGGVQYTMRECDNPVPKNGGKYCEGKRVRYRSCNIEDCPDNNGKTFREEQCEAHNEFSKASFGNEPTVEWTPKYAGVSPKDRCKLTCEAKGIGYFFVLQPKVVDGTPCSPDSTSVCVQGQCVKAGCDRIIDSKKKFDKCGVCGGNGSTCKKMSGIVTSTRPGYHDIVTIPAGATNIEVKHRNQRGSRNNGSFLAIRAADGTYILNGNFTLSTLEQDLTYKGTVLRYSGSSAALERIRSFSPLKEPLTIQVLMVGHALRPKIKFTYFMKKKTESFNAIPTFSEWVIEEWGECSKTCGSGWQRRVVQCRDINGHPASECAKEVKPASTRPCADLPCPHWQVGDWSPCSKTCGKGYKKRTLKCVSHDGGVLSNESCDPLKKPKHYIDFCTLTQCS
UniProt Q64339, residues 1-155: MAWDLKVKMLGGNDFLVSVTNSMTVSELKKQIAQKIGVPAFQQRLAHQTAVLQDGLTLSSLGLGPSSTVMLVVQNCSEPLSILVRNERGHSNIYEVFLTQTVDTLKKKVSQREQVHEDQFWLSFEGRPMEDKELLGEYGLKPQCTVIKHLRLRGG

What was measured:
[1] = target: FLAG-ADAMTS1 (mouse) (UniProt P97857); experiment: co-IP; mGCs co-transfected with tagged ADAMTS1 and tagged ISG15 (or ISG15-AA); lysates immunoprecipitated with anti-HA or anti-FLAG beads overnight at 4 °C, PBST washes, immunoblot
[2] = target: HA-ADAMTS1 (mouse) (UniProt P97857); experiment: as above

With HA-ISG15 (from UniProt Q64339 1-155) the binding [1] was “binds”.

For “FLAG-ISG15 (interferon-stimulated gene 15) (from UniProt Q64339 1-155)”, the binding [2] was “binds”.
